“And” between values parts separate entries of the source, which are not always exact repeats. Identical values can stand only once. The whole screen tested about 300,000 compounds, of which about 5,400 (1.8%) were called active. Inconclusive results, whose numbers are uncertain, are shown with a selection of clear calls. The call rests on the fitted dose curve; tested in HEK293 cells. Where the call is inconclusive, the potency comes from a doubtful curve fit.
Assay: qHTS for inhibitors of binding or entry into cells for Marburg Virus
Conditions: Marburg virus pseudotyped entry inhibition, cell reporter; activity change, negative = inhibition: at 37.8 µM (top of the series) unless noted
On the % scale 0 is the no-effect control and ±100 the full control effect; potency means the concentration at half of the fitted maximal effect.

| Structure (SMILES) | Potency | activity change, negative = inhibition |
| --- | --- | --- |
| CCc1ccc(NC(=O)CSc2ccccn2)cc1 | inconclusive: 1.58 µM [activator, full curve, poor fit] |  |
| S=P(NCCNP(=S)(N1CC1)N1CC1)(N1CC1)N1CC1 | inconclusive: 2.51 µM [inhibitor, full curve, poor fit] |  |
| O=c1[nH]c2ccccc2cc1CN(CC1CCCO1)S(=O)(=O)c1ccccc1 (stereo unspecified) | inconclusive: 10 µM [inhibitor, single point] |  |
| CCOc1ccccc1C(=O)N[C@H](C(=O)Nc1nc2c(s1)CCCC2)C(C)C | inconclusive: 11.2 µM [inhibitor, partial curve, poor fit] |  |
| O=C(Nc1ccc(-c2nc3ccccc3o2)cc1)C1CCCO1 (stereo unspecified) | inconclusive: 16.4 µM [inhibitor, single point] |  |
| COc1ccccc1NC(=O)c1ccc(-c2ccccc2[N+](=O)[O-])o1 | inconclusive: 35.5 µM [inhibitor, single point] |  |
| COc1cccc2c1C1(CCCCC1)CC2NC(=O)C(F)(F)F (stereo unspecified) |  | inactive: -14.5% [at 14.2 µM] |
| COc1ccccc1CNC(=O)CS(=O)(=O)Cc1nc(-c2ccccc2C)oc1C |  | inactive: 2.24% [at 46.1 µM] |
| Cc1c(/C=N\NC(=O)c2cccc(F)c2)cnn1C |  | inactive: 28.9% |
| CNC(=O)O/N=C/c1nn(C(=O)C(C)(C)C)cc1Br | inconclusive: 5.62 µM [activator, single point] |  |
| O=C(NCCc1ccc(Cl)cc1)C1CCC(=O)N(C2CCCCCC2)C1 (stereo unspecified) |  | inactive: -5.98% [at 46.1 µM] |
| CCOc1cccc(C(=O)NC(=S)Nc2ccc3c(c2)OCCO3)c1 | inconclusive: 5.01 µM [activator, full curve, poor fit] |  |
| CCOC(=O)c1c(C)c(C)n(Cc2cccc(OC)c2OC)c1C |  | inactive: -29.2% |
| COc1ccc(C(O)Cn2cc([N+](=O)[O-])nc2C)cc1 (stereo unspecified) |  | inactive: 3.1% [at 46.1 µM] |
| O=C(N/N=C/c1ccc2nccnc2c1)c1cccc([N+](=O)[O-])c1 |  | inactive: -14.8% [at 46.1 µM] |
| O=C(CSc1oc(-c2ccco2)nc1S(=O)(=O)c1ccccc1)c1ccc(Cl)cc1 | inconclusive: 35.5 µM [inhibitor, single point] |  |
| CCOC(=O)c1oc2ccc(S(=O)(=O)n3nc(-c4cc(OCC)c(OCC)c(OCC)c4)cc3N)cc2c1C | inconclusive: 35.5 µM [inhibitor, single point] |  |
| COc1ccc(CCNC(C(=O)Nc2cc(C)cc(C)c2)c2ccccc2)cc1 (stereo unspecified) | inconclusive: 35.5 µM [inhibitor, single point] |  |
| COC(=O)c1ccccc1Nc1ccccc1 |  | inactive: -34.8% |
| Cn1cc(CCNC(=O)CCc2nnc(CCCCc3ccccc3)o2)cn1 |  | inactive: -5.53% [at 46.1 µM] |
| CCCCn1c2ccc(F)cc2c2nnc(SCCN3CCOCC3)nc21 | inconclusive: 11.2 µM [inhibitor, partial curve, poor fit] |  |
| Cc1cc(N/N=C/c2cccc(Cl)c2)nc(NCc2ccccc2)n1 | active: 18.4 µM |  |
| COc1nc(-c2ccc(Cl)cc2)nnc1C | inconclusive: 15.8 µM [activator, partial curve, poor fit] |  |
| COc1cc(NC(=O)Cn2cnc3sc(C)c(S(=O)(=O)N4CCN(C)CC4)c3c2=O)cc(OC)c1OC | inconclusive: 3.55 µM [activator, single point] |  |

| Structure (SMILES) | Potency | activity change, negative = inhibition |
| --- | --- | --- |
| O=C(CN1C(=O)C(=O)N(Cc2ccccc2)C1=O)c1ccc[nH]1 | inconclusive: 7.94 µM [activator, partial curve, poor fit] |  |
| Clc1ccc(Nc2ccccc2)nn1 |  | inactive: 1.08% [at 46.1 µM] |
| C=CCn1c(C)nc2c(cnn2-c2ccccc2)c1=O |  | inactive: -1.59% [at 46.1 µM] |
| CCc1ccc(Cn2nnc(C(=O)Nc3ccc(C)cc3)c2N)cc1 | inconclusive: 1 µM [activator, full curve, poor fit] |  |
| COc1ccc(C2(C)CC(C)(C)Nc3ccccc32)cc1 (stereo unspecified) | inconclusive: 6.31 µM [activator, single point] |  |
| Oc1ccc2c3c1O[C@H]1c4[nH]c5c(c4C[C@@]4(O)[C@@H](C2)N(CC2CC2)CC[C@]314)C[C@@]1(O)[C@H]2Cc3ccc(O)c4c3[C@@]1(CCN2CC1CC1)[C@H]5O4 | inconclusive: 7.08 µM [inhibitor, full curve, poor fit] |  |
| N#CCc1nc(CSc2nc3ccccc3s2)cs1 |  | inactive: 0.54% |
| CCOC(=O)OC[C@H]1O[C@H](c2ccc(C(C)=O)cc2)C=C[C@@H]1Oc1ccc(-c2ccccc2)cc1 |  | inactive: 2.82% [at 14.2 µM] |
| COc1cccc(CNCCSc2nnnn2C)c1OCc1ccc(Cl)cc1 | active: 10 µM |  |
| C[C@H]1Cc2c(-c3ccccc3)nc3c(c2CO1)CN(S(=O)(=O)c1ccc(Cl)c2nonc12)CC3 | inconclusive: 0.0266 µM [inhibitor, full curve, poor fit] |  |
| CCCN(CCC)CCCNC(=O)c1cn(CC)c2ccc(S(=O)(=O)N3CCc4ccccc4C3)cc2c1=O | inactive and inconclusive: 2 µM [inhibitor, full curve, poor fit] |  |
| NC1=NC(=O)/C(=C/c2ccccc2OCC(=O)Nc2ccc(F)cc2)S1 |  | inactive: -13.9% [at 46.1 µM] |
| CC[C@]1(O)C(=O)OCc2c1cc1n(c2=O)Cc2cc3ccccc3nc2-1 | active: 0.0251 µM |  |
| Cn1c(SCC(=O)c2ccccc2)nnc1-c1ccncc1 |  | inactive: -0.229% [at 46.1 µM] |
| NC(Cc1ccc(Cl)cc1)C(=O)O (stereo unspecified) | inconclusive: 0.251 µM [inhibitor, full curve] |  |
| Cc1cccc(NC(=O)CSc2nnc(C)c(C)n2)c1 |  | inactive: -10.7% [at 46.1 µM] |
| O=C(NC(=S)NCc1cccnc1)c1ccccc1[N+](=O)[O-] | inconclusive: 35.5 µM [inhibitor, single point] |  |
| COc1ccc(N2CC(O)(c3ccc(OC(F)F)cc3)[N+]3=C2CCCC3)cc1 (stereo unspecified) | inconclusive: 3.55 µM [activator, single point] |  |
| CCc1ccc2occ(CC(=O)Nc3sc4c(c3C(=O)OC)CCC4)c2c1 | inconclusive: 35.5 µM [inhibitor, single point] |  |
| Nc1c(C(=O)c2ccccc2)oc2ccccc12 |  | inactive: 4.93% |
| CCOc1ccc(OCC)c(NC(=O)C2CCN(S(=O)(=O)c3c(C)noc3C)CC2)c1 | inconclusive: 3.16 µM [activator, partial curve, poor fit] |  |
| Cc1cc(C)c(S(=O)(=O)N2CCN(C(=O)C(C)Cn3nc(C)nc3C)CC2)c(C)c1 (stereo unspecified) |  | inactive: -9.11% [at 46.1 µM] |

| Structure (SMILES) | Potency | activity change, negative = inhibition |
| --- | --- | --- |
| CCOC(=O)c1c(-c2ccc(OC)c(OC)c2)csc1NC(=O)c1ccc(F)cc1 | inconclusive: 7.08 µM [activator, single point] |  |
| O=C(CC1SC(=Nc2ccc3c(c2)OCCO3)NC1=O)Nc1ccc(F)cc1F (stereo unspecified) | inconclusive: 22.4 µM [inhibitor, single point] |  |
| COc1cc(/C=N/Nc2ccc([N+](=O)[O-])cn2)cc(OC)c1O | inconclusive: 7.08 µM [inhibitor, partial curve, poor fit] |  |
| Cc1ccc(OCC(=O)Nc2ccc(S(=O)(=O)N(Cc3ccccc3)c3ccccc3)cc2)cc1 |  | inactive: -21% [at 46.1 µM] |
| CC(=O)c1c(C)[nH]c(C(=O)COC(=O)c2c(-c3ccccc3)noc2C)c1C | inconclusive: 0.112 µM [inhibitor, full curve, poor fit] |  |
| O=C(c1ccccc1)N1CCN=C1c1ccccc1 |  | inactive: 2.3% |
| c1ccc(-c2nnnc3ccccc23)cc1 |  | inactive: -33.9% |
| Cc1cc(C)cc(OCCNS(=O)(=O)c2cccs2)c1 | inconclusive: 5.62 µM [inhibitor, single point] |  |
| CCN1CCN(C(=O)c2ccc(COc3cccc(Cl)c3)o2)CC1 |  | inactive: -3.26% [at 46.1 µM] |
| Oc1ccc(N=Nc2n[nH]c(-c3ccccc3)n2)cc1 | inconclusive: 14.6 µM [inhibitor, single point] |  |
| Cc1c(C(=O)Nc2ccccn2)oc2ccccc12 | inconclusive: 0.58 µM [activator, partial curve, poor fit] |  |
| CCC(C)(C)C1CCC2(CC1)NC(=O)N(CC(=O)N(C)CC(=O)Nc1ccccc1C(F)(F)F)C2=O (stereo unspecified) |  | inactive: 0.104% |
| Cc1ccccc1C(=O)NCC(=O)NNC(=S)NC(=O)c1ccccc1C | inconclusive: 0.112 µM [activator, full curve, poor fit] |  |
| CC(SCc1ccccc1)C(=O)NN=C1CCN(C)CC1 (stereo unspecified) | inconclusive: 29.1 µM [activator, single point] |  |
| O=C(COc1cccc(Cl)c1)Nc1nc(-c2ccc(S(=O)(=O)N3CCOCC3)cc2)cs1 | inconclusive: 35.5 µM [inhibitor, single point] |  |
| O=C(CCc1nc2sc3c(c2c(=O)[nH]1)CCCC3)Nc1cccc(Cl)c1 | inconclusive: 11.2 µM [inhibitor, partial curve, poor fit] |  |
| COc1ccc(C(=O)CC(Nc2ccc([N+](=O)[O-])cc2)c2ccc(Cl)cc2)cc1 (stereo unspecified) | inconclusive: 25.9 µM [inhibitor, partial curve, poor fit] |  |
| N#Cc1sc2nccc(Nc3ccccc3)c2c1N |  | inactive: -27.7% [at 46.1 µM] |
| CC1CCN(C(=O)c2cc(-c3ccc4c(c3)OCO4)on2)CC1 | inconclusive: 8.91 µM [inhibitor, partial curve, poor fit] |  |
| COc1cccc(-n2nnnc2SCC(=O)Nc2ccc3c(c2)OCCO3)c1 | inconclusive: 35.5 µM [inhibitor, single point] |  |
| CCOC(=O)CSc1nnc(Cn2nnc(-c3ccccc3)n2)n1CC | inconclusive: 3.55 µM [activator, single point] |  |
| Cc1ccc(-c2cc(=O)c3cc(C)ccc3[nH]2)cc1 | active: 8.2 µM |  |
| O=c1c2ccccc2nc2ccccn12 | inconclusive: 14.1 µM [activator, single point] |  |

Source: PubChem BioAssay AID540276 (National Center for Advancing Translational Sciences (NCATS), 2011)
